According to patent US20220010021A1:
Numbering of substitutions follows the chain as printed. These are yes or no findings as the source states them, for the method shown. Some entries that bind do so weakly or less than the wild type.

Chains of the proteins cited; added tags and fusions are not shown. Residues count along the entry.
UniProt Q86Z14, residues 53-997: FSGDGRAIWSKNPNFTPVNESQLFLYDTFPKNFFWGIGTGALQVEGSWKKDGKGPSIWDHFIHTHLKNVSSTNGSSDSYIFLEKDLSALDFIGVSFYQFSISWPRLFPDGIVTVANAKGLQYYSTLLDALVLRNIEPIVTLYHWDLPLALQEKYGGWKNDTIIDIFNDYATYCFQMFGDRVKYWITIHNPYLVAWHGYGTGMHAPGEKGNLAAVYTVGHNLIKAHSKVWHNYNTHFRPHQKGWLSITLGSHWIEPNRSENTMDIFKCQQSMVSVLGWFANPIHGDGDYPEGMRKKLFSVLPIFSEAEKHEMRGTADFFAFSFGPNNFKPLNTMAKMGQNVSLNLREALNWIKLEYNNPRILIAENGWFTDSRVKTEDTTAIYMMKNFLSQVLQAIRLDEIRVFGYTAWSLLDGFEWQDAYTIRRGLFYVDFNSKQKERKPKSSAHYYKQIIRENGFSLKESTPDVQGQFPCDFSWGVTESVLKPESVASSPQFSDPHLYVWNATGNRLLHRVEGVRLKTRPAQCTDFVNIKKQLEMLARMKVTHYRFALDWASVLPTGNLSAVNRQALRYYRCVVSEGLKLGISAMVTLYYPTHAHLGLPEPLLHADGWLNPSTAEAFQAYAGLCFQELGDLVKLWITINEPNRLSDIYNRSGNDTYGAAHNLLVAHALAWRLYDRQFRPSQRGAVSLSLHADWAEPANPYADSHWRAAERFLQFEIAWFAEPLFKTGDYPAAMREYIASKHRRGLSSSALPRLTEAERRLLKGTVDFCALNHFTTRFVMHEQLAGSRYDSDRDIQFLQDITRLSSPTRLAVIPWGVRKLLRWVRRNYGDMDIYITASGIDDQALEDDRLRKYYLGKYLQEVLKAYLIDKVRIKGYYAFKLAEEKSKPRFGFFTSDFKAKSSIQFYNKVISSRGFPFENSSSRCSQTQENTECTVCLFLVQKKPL

Molecular target: human beta-Klotho (KLB) (human) (UniProt Q86Z14)
Experiment: SPR on human KLB; koff (panel C) and KD (panel D), mean +/- SEM, n=3 [D]

B1: Ab0327 (antibody, IgG4, V domains shown)
VH: QVTLKESGPVLVKPTETLTLTCTVSGFSLNNARVGVSWIRQPPGKALEWLAHIFSNDEKSYSTSLKSRLTISKDTSKSQVVLTMTNMDPVDTATYYCARSVVTGGYYYEGMDVWGQGTTVTVSS
VL: SYVLTQPPSVSVAPGQTARITCGGSNIGSESVHWYQQKPGQAPVLVVYYYSDRPSGIPERFSGSNSGNTATLTISRVEAGDEADYYCQVWEGESDHVVFGGGTKLTVLG
Q: B1 was tested. Which binding did it give?
A: binds

B2: Ab0337 (antibody, IgG4, V domains shown)
VH: B1 VH
VL: B1 VL with Y49S, Y50H
Q: How did the binding turn out when B2 was run?
A: binds
